Measurements reported in PubChem BioAssay AID1259308 (NCATS, 2017).
Aim: 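Genes whose loss raises luciferase production in HEK293 cells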 (primary screen). System: human HEK293 embryonic kidney cells stably expressing firefly luciferase (HEK-CMV-Luc2-Hygro). Reagents: single siRNA against human genes, 0.8 pmol siRNA per well. Duration: 72 h. Read-out: 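Luciferase light (ONE-Glo) measured on one replicate plate set and viability (CellTiter-Glo) on the other, scaled to a negative control siRNA, with robust z-scores and luciferase per cell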. Direction: total luciferase, z-score: higher = more reporter protein produced. Active means: 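Active when the median/MAD z-score for overall luciferase is greater than 3; a gene was taken forward for validation with new siRNAs if at least two of its three siRNAs passed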. Meaning of the calls: active = raised luciferase; inactive = no rise.
The deposit covers about 59,000 reagents; below is a part drawn at random. Over the whole deposit, about 1,510 (2.6%) got an active call. 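Calls use total luciferase alone and ignore viability, so some active siRNAs may act by altering cell number.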 The numbers tell different reagents against one gene apart. Further read-outs or replicates are left out here. No sequences are given here.

Target gene	siRNA no.	total luciferase, z-score	Outcome
CD24	1	-1.22	inactive
CD24	2	-0.464	inactive
CD24	3	-2.09	inactive
SMIM3	1	0.358	inactive
SMIM3	2	0.292	inactive
SMIM3	3	0.221	inactive
HBG1	1	0.717	inactive
HBG1	2	-0.736	inactive
HBG1	3	-2.4	inactive
LINGO4	1	0.972	inactive
LINGO4	2	-1.3	inactive
LINGO4	3	-0.0855	inactive
ORM1	1	-1.23	inactive
ORM1	2	0.467	inactive
ORM1	3	-0.647	inactive
SOX2	1	0.0511	inactive
SOX2	2	0.573	inactive
SOX2	3	1.44	inactive
SDR39U1	1	5.89	active
SDR39U1	2	0.332	inactive
SDR39U1	3	-0.842	inactive
KRT33A	1	0.147	inactive
KRT33A	2	1.32	inactive
KRT33A	3	0.133	inactive
CPNE7	1	0.191	inactive
CPNE7	2	0.352	inactive
CPNE7	3	-2.05	inactive
CHN2	1	-0.618	inactive
CHN2	2	0.83	inactive
CHN2	3	1.2	inactive
TRIM49	1	-0.581	inactive
TRIM49	2	-0.912	inactive
TRIM49	3	-0.185	inactive
CYTH2	1	-0.897	inactive
CYTH2	2	0.941	inactive
CYTH2	3	0.276	inactive

Next part; the last 7 above are carried over.
Target gene	siRNA no.	total luciferase, z-score	Outcome
CHN2	3	1.2	inactive
TRIM49	1	-0.581	inactive
TRIM49	2	-0.912	inactive
TRIM49	3	-0.185	inactive
CYTH2	1	-0.897	inactive
CYTH2	2	0.941	inactive
CYTH2	3	0.276	inactive
TBC1D24	1	1.28	inactive
TBC1D24	2	3.87	active
TBC1D24	3	0.216	inactive
PRSS47P	1	1.13	inactive
PRSS47P	2	2.31	inactive
PRSS47P	3	1.62	inactive
TSPAN17	1	-2.21	inactive
TSPAN17	2	1.38	inactive
TSPAN17	3	-0.535	inactive
PRSS23	1	-0.183	inactive
PRSS23	2	0.551	inactive
PRSS23	3	0.148	inactive
ENO4	1	2.18	inactive
ENO4	2	1.27	inactive
ENO4	3	3.84	active
PNMA5	1	-0.652	inactive
PNMA5	2	5.7	active
PNMA5	3	0.284	inactive
HELB	1	0.215	inactive
HELB	2	0.0197	inactive
HELB	3	1.42	inactive
